Results are given in words; binding and its absence hold for the method and conditions named. In cells and extracts the contact can be indirect. A result given as binding can be weak or reduced; the word gives no strength. Where a sequence is shown, tags or fusion partners need not be part of it.
How the values were obtained:
[1] = molecular target: T1, FILIP d248-685 (3 x FLAG tagged) (rat) (UniProt Q8K4T4); assay: co-IP; COS-7 cells transfected with FLAG-tagged FILIP or deletion mutants; immunoprecipitation with anti-FLAG M2 on Protein G Dynabeads, 4°C, 3 hours; blots with anti-Hsc70 or anti-NMHCIIb; in Fig 4E also with expression of Hsc70 or Hsc70 K71M
T1 sequence: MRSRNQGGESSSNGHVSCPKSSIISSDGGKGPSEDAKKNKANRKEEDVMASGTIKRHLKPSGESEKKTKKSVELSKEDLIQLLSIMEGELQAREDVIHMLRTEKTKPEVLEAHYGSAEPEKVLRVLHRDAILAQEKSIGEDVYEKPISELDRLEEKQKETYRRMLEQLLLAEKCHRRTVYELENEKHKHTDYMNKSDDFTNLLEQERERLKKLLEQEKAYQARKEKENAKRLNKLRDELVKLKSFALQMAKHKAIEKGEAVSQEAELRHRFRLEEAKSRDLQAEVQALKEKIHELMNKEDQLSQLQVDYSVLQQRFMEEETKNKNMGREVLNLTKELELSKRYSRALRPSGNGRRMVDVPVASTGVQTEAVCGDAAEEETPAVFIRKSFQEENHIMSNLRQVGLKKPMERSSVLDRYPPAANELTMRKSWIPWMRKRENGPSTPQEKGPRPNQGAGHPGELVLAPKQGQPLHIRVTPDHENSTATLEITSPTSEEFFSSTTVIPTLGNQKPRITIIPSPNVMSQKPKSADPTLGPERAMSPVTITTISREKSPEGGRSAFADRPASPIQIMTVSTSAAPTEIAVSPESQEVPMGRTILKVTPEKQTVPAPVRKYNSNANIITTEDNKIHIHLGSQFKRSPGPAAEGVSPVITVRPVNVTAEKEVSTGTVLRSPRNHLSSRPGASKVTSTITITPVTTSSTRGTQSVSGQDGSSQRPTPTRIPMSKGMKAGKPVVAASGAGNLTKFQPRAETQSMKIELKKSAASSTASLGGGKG

[2] = molecular target: T2, FILIP d248-442 (3 x FLAG tagged) (rat) (UniProt Q8K4T4); assay: as above
T2 sequence: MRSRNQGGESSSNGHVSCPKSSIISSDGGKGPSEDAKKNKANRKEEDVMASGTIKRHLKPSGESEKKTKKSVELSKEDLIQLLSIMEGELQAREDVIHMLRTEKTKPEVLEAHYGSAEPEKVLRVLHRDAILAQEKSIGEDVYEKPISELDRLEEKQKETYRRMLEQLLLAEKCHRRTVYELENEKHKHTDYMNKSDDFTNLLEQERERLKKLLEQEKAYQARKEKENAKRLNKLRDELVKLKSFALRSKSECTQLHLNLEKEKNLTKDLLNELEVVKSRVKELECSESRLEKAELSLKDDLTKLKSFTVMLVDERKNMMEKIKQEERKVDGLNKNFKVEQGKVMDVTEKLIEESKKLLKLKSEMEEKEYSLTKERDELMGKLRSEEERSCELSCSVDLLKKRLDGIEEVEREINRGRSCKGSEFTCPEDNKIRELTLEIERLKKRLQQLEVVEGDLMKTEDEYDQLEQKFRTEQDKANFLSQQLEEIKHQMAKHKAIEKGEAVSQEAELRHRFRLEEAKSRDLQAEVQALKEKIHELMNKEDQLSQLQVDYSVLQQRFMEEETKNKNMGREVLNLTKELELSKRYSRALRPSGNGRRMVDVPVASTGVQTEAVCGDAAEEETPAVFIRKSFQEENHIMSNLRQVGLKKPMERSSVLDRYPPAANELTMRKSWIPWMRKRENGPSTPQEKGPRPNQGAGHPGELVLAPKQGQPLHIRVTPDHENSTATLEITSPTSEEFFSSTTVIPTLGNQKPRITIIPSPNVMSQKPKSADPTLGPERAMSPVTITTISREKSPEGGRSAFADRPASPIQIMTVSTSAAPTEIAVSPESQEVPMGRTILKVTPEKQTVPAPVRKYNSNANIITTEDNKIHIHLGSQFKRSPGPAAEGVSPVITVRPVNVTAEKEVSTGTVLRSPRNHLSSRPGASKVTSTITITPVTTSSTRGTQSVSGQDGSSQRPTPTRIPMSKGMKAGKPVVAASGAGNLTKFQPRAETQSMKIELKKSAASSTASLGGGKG

non-muscle myosin IIb (endogenous, COS-7 cells)
binding [1]: binds | binding [2]: binds

— PMC5325215
